At least one structure is not confirmed: it was looked up by name or label, or the drawing left a doubt.
System: IPCs derived from human MSCs
Assay: Insulin release by IPCs quantified by human insulin ELISA
Type: cell-based
Details: nifedipine 50 μM, high glucose concentration (10 mM), 1 hour incubation in KRB buffer, FIG. 3B, p<0.05
Protocol: Insulin is an endocrine for reducing blood sugar, and normal islet cells are induced by glucose to release insulin. In order to quantify insulin release by IPCs, a human insulin ELISA (Enzyme-Link ImmunoSorbent Assay) is employed herein.
The suspension stage IV cells are rinsed twice in Phosphate Buffered Saline (PBS) and Krebs-Ringer bicarbonate (KRB) buffer (120 mM NaCl, 5 m M KCl, 2.5 m M CaCl2, 1.1 mM MgCl2, 25 mM NaHCO3 , 0.1 BSA) and preincubated for 1 hour with KRB buffer containing 5 mM glucose. The suspension stage IV cells are then incubated for 1 hour in fresh KRB buffer with 5 mM, 10 mM, 15 mM or 25 mM glucose, and the released insulin in the incubation medium is quantified by ELISA. The quantified insulin release results are shown in FIG. 3A, wherein undifferentiated MSCs are served as a control (*p<0.05 as compared with 5 mM; #p<0.05 as compared with 10 mM; student's t test). […] The insulin secreted by IPCs derived from human MSCs in the present invention is up to 1.1 ng/h/2.5×10^5 IPCs, which is even higher than those secreted by IPCs derived from rodent bone marrow stem cells in the prior art (referring to the citations 5-7). […]

## COC(=O)C1=C(C)NC(C)=C(C(=O)OC)C1c1ccccc1[N+](=O)[O-] [nifedipine]
  insulin release: inhibits insulin release
